Measured values published in US12109252B2, “Systems, methods and products for minimizing tissue reactions and tissue injury at an infusion site” (Cell and Molecular Tissue Engineering, LLC, priority 2016, dated 2024).

System: human peripheral blood leukocytes
Experiment: Uptake of FITC-insulin by human leukocytes (fluorescent microscopy)
Format: cell-based
Conditions: PMNs, monocytes; not lymphocytes

## FITC-insulin: fluorescent insulin (FITC-insulin; Sigma, St. Louis, MO)
  uptake by human leukocytes: take up and degrade; also recorded: taken up

Entries after “also recorded” stand apart in the source; their conditions may differ.
